Experimental data taken from patent US10064928B2, “Peptides and combination of peptides for use in immunotherapy against CLL and other cancers” (IMMATICS BIOTECHNOLOGIES GMBH, priority 2015, dated 2018).

Key:
[1] = tested on: CLL samples compared to a panel of normal tissues; test: Identification and label-free relative LC-MS quantitation of HLA-presented peptides (presentation profiles and scores); parameters: species or system human; key: very highly over-presented on tumors compared to a panel of normal tissues (+++); highly over-presented on tumors compared to a panel of normal tissues (++); over-presented on tumors compared to a panel of normal tissues (+); conditions: presentation score; over-presentation on tumors (CLL samples) compared to a panel of normal tissues
[2] = tested on: other tumor types (e.g. non-Hodgkin lymphoma, lung cancer); test: Presentation of the peptides on additional tumor types (LC-MS, Tables 4A/4B, FIG. 1); parameters: species or system human; conditions: for Additional Entities: Table 4B: additional tumour types with over-presentation (including specific presentation) on more than 5% of the measured tumour samples, or presentation on more than 5% with ratio of geometric means tumour vs normal tissues larger than 3, extended normal tissue panel; for Other relevant organs/diseases: Table 4A: additional tumor types where the peptide was over-presented on more than 5% of the measured tumor samples, or presented on more than 5% with ratio of geometric means tumor vs normal tissues larger than 3

Row | Substance | Peptide Presentation [1] | Additional Entities [2] | Other relevant organs/diseases [2]
1 | 176 (VLAEQNIIPSA; listed as Homo sapiens) [compound 176] | +++ | NSCLC, SCLC, GC, Melanoma, NHL, HNSCC | 
2 | 33 (FIINSSNIFL; listed as Homo sapiens) [compound 33] | +++ |  | NHL
3 | 236 (GLLESGRHYL; listed as Homo sapiens) [compound 236] | +++ |  | NHL, AML
4 | 349 (ALATHILSL; listed as Homo sapiens) [compound 349] | ++ | HCC, Melanoma | NHL, Urinary bladder cancer
5 | 234 (GLDDAEYAL; listed as Homo sapiens) [compound 234] | + | Uterine Cancer, HNSCC | NHL, AML, Melanoma, Urinary bladder cancer
6 | 1 (AIPPSFASIFL; listed as Homo sapiens) [compound 1] | +++ |  | NHL
7 | 29 (AVLQAVTAV; listed as Homo sapiens) [compound 29] | +++ | Uterine Cancer | SCLC, NHL, AML, Melanoma, OC, Gallbladder Cancer, Bile Duct Cancer
8 | 197 (YLQEVPILTL; listed as Homo sapiens) [compound 197] | +++ | Uterine Cancer | NHL, Melanoma
9 | 181 (VLLSIPFVSV; listed as Homo sapiens) [compound 181] | + | Melanoma, Gallbladder Cancer, Bile Duct Cancer | HCC, NHL
10 | 354 (FIMDDPAGNSYL; listed as Homo sapiens) [compound 354] | + | Brain Cancer, HNSCC | CRC, NHL, AML, Melanoma, Esophageal Cancer, Urinary bladder cancer, Gallbladder Cancer, Bile Duct Cancer
11 | 57 (GLSEISLRL; listed as Homo sapiens) [compound 57] | +++ |  | NHL, AML, Melanoma
12 | 174 (VLAELPIIVV; listed as Homo sapiens) [compound 174] | +++ | NSCLC, OC | 
13 | 346 (VLVQVSPSL; listed as Homo sapiens) [compound 346] | +++ | HNSCC | RCC, NHL, AML, Gallbladder Cancer, Bile Duct Cancer
14 | 344 (VLAFENPQV; listed as Homo sapiens) [compound 344] | ++ | HNSCC | Esophageal Cancer
15 | 69 (GLHQREIFL; listed as Homo sapiens) [compound 69] | +++ |  | NHL
16 | 39 (FLDALLTDV; listed as Homo sapiens) [compound 39] | +++ |  | SCLC, NHL, AML, Melanoma
17 | 327 (VLIKWFPEV; listed as Homo sapiens) [compound 327] | +++ | Uterine Cancer | NHL
18 | 63 (SLAHVAGCEL; listed as Homo sapiens) [compound 63] | +++ |  | NHL
19 | 192 (YIQEYLTLL; listed as Homo sapiens) [compound 192] | +++ | SCLC, Urinary Bladder Cancer, AML, HNSCC | NHL
20 | 165 (TLDDDLDTV; listed as Homo sapiens) [compound 165] | +++ |  | NHL
21 | 235 (GLDDLLLFL; listed as Homo sapiens) [compound 235] | + | BRCA, HNSCC | SCLC, PC, NHL, AML, Urinary bladder cancer, Uterine Cancer, Gallbladder Cancer, Bile Duct Cancer
22 | 13 (VVDGMPPGV; listed as Homo sapiens) [compound 13] | ++ | BRCA, Uterine Cancer | NHL

Row | Substance | Peptide Presentation [1] | Additional Entities [2] | Other relevant organs/diseases [2]
23 | 68 (GLDQQFAGLDL; listed as Homo sapiens) [compound 68] | +++ | BRCA, OC, Uterine Cancer, Gallbladder Cancer, Bile Duct Cancer, HNSCC | RCC, HCC, NHL, Melanoma
24 | 263 (SQWEDIHVV; listed as Homo sapiens) [compound 263] | ++ |  | NHL, AML
25 | 83 (GQGEVLVYV; listed as Homo sapiens) [compound 83] | + | NHL | SCLC, GC, Esophageal Cancer
26 | 155 (SLMLEVPAL; listed as Homo sapiens) [compound 155] | +++ |  | HCC, NHL
27 | 385 (YTIPLAIKL; listed as Homo sapiens) [compound 385] | +++ | CRC | NHL, AML, BRCA, Esophageal Cancer
28 | 276 (VLNDGAPNV; listed as Homo sapiens) [compound 276] | + |  | NSCLC, SCLC, NHL, Melanoma, Uterine Cancer, Gallbladder Cancer, Bile Duct Cancer
29 | 99 (ILIFHSVAL; listed as Homo sapiens) [compound 99] | +++ |  | NHL, AML
30 | 40 (FLDEDDMSL; listed as Homo sapiens) [compound 40] | + | HNSCC | SCLC, NHL, Urinary bladder cancer
31 | 242 (ILLGIQELL; listed as Homo sapiens) [compound 242] | ++ | BRCA | NHL, AML
32 | 93 (ILFNTQINI; listed as Homo sapiens) [compound 93] | +++ | Uterine Cancer, HNSCC | SCLC, NHL, AML, Melanoma, OC
33 | 66 (SLAGGLDDMKA; listed as Homo sapiens) [compound 66] | +++ |  | NHL
34 | 172 (TLYDMLASI; listed as Homo sapiens) [compound 172] | +++ | SCLC, Urinary Bladder Cancer, Uterine Cancer | CRC, NHL, AML, Melanoma
35 | 88 (ILDEIGADVQA; listed as Homo sapiens) [compound 88] | +++ |  | PC, NHL
36 | 360 (HLIDTNKIQL; listed as Homo sapiens) [compound 360] | + | NHL, NSCLC | 
37 | 282 (LLRDGIELV; listed as Homo sapiens) [compound 282] | +++ |  | NHL, Melanoma, OC
38 | 191 (YIFDGSDGGV; listed as Homo sapiens) [compound 191] | +++ | Uterine Cancer | 
39 | 232 (FMHQIIDQV; listed as Homo sapiens) [compound 232] | + | Uterine Cancer | RCC, CRC, Melanoma
40 | 133 (YLLSGDISEA; listed as Homo sapiens) [compound 133] | +++ |  | NHL
41 | 254 (QLIPKLIFL; listed as Homo sapiens) [compound 254] | +++ |  | NHL, Melanoma
42 | 11 (ALFTFSPLTV; listed as Homo sapiens) [compound 11] | +++ | AML, HNSCC, NHL, NSCLC, OC, SCLC | 
43 | 329 (VLMDGSVKL; listed as Homo sapiens) [compound 329] | + |  | NHL
44 | 317 (NLLAHIWAL; listed as Homo sapiens) [compound 317] | + | NHL | AML
